PubChem BioAssay AID1224830 – NIAID | 2016
The deposit covers about 18,000 reagents; shown is an unselected part. About 2,900 of them (16%) count as active. 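Calls are made per well; low scores hint the gene aids the LPS response, high scores that it dampens it.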 Repeated entries: four replicate wells of each siRNA pool. No sequences are given here.

Aim: 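Genes whose knock-down alters the TNF-alpha reporter response to LPS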 (primary screen)
System: human THP-1 monocytic leukaemia cells, TNF dual-luciferase reporter clone, PMA-differentiated to macrophage-like cells
Knock-down reagent: siRNA pool against human genes, 50 nM
Time to read-out: LPS for 4 h, given about 3 days after siRNA transfection
Conditions: bacterial LPS (TLR4 ligand), 10 ng/ml
Detection: 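TNF firefly reporter luminescence divided by renilla, normalised to the plate median, then turned into a robust z-score for each replicate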
Scale: TNF reporter robust z-score: higher = stronger TNF reporter response to LPS
Active means: 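a well is active when its z-score exceeds 2.8 or falls below -1.5; control wells carry no call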

The opening 4 records as a preview:
gene	TNF reporter robust z-score	outcome
ALKAL1	2.24	inactive
ALKAL1	2.03	inactive
ALKAL1	0.35	inactive
ALKAL1	2.16	inactive

The listing, from the first entry:
gene	TNF reporter robust z-score	outcome
ALKAL1	2.24	inactive
ALKAL1	2.03	inactive
ALKAL1	0.35	inactive
ALKAL1	2.16	inactive
INPP5J	-1.28	inactive
INPP5J	-1.27	inactive
INPP5J	-1.34	inactive
INPP5J	-0.35	inactive
KCND2	-0.78	inactive
KCND2	0.31	inactive
KCND2	-0.06	inactive
KCND2	0.06	inactive
POM121	-0.51	inactive
POM121	-0.17	inactive
POM121	-0.59	inactive
POM121	-0.68	inactive
USP50	-0.23	inactive
USP50	-0.52	inactive
USP50	0.93	inactive
USP50	0.79	inactive
ZBTB38	-0.21	inactive
ZBTB38	0.89	inactive
ZBTB38	0.65	inactive
ZBTB38	1.06	inactive
IGFN1	0.38	inactive
IGFN1	0.98	inactive
IGFN1	0.82	inactive
IGFN1	1.42	inactive
DEFB131A	1.4	inactive
DEFB131A	0.66	inactive
DEFB131A	0.96	inactive
DEFB131A	-0.2	inactive
TMPPE	-0.63	inactive
TMPPE	-1.05	inactive
TMPPE	-1	inactive
TMPPE	-0.76	inactive
VWA5A	0.55	inactive
VWA5A	-0.27	inactive
VWA5A	-0.43	inactive
VWA5A	-0.46	inactive
PLP1	1.22	inactive
PLP1	1.47	inactive
PLP1	1.07	inactive
PLP1	0.15	inactive
OR6Y1	14.9	active
OR6Y1	0.44	inactive
OR6Y1	0.78	inactive
OR6Y1	-1.13	inactive
GSTP1	-1.51	active
GSTP1	-1.14	inactive
GSTP1	-0.73	inactive
GSTP1	-1.12	inactive
UPF3A	1.12	inactive
UPF3A	0.82	inactive
UPF3A	3.01	active
UPF3A	0.18	inactive
NAB2	0.74	inactive
NAB2	0.51	inactive
NAB2	0.57	inactive
PAX4	0.54	inactive
PAX4	0.5	inactive
PAX4	0.84	inactive
PAX4	0.86	inactive
PIGY	0.46	inactive
PIGY	0	inactive
PIGY	0.23	inactive
PIGY	-0.22	inactive
H4C7	-0.27	inactive
H4C7	-0.23	inactive
H4C7	0.04	inactive
TACC1	1.18	inactive
TACC1	1.11	inactive
TACC1	4.85	active
TACC1	-0.44	inactive
STEAP1	-0.27	inactive
STEAP1	0.74	inactive
STEAP1	-0.18	inactive
STEAP1	-0.43	inactive
RAB6B	1.69	inactive
RAB6B	-1.43	inactive
RAB6B	1.44	inactive
RAB6B	1.16	inactive
AADACL2	-0.18	inactive
AADACL2	0.17	inactive
AADACL2	0.39	inactive
AADACL2	-0.1	inactive
SPIC	-0.78	inactive
SPIC	3.21	active
SPIC	1.42	inactive
SPIC	1.18	inactive
DCANP1	2.32	inactive
DCANP1	1.88	inactive
DCANP1	2	inactive
DCANP1	0.89	inactive
PSMB8	-0.28	inactive
PSMB8	0.17	inactive
PSMB8	-1.72	active
PSMB8	-0.66	inactive
COP1	-2.08	active
COP1	-0.37	inactive
COP1	-0.66	inactive
COP1	-0.36	inactive
ING2	1.31	inactive
ING2	-0.37	inactive
ING2	-0.07	inactive
ING2	1.53	inactive
KRTAP17-1	2.39	inactive
KRTAP17-1	1.2	inactive
KRTAP17-1	2.83	active
KRTAP17-1	1.02	inactive
